Results taken from patent publication US20070031511A1 (priority 2003, published 2007).
For part of these data: Some peptides are written in HELM: one residue between dots, names in brackets for other building blocks, links after the first $. Where a SMILES comes first, the peptide text is derived from it. [ ]: non-standard residue; d: D form. pGlu = O=C1CC[C@@H](C(=O)O)N1

Assays:
[1] = Quenching of peptide tryptophan fluorescence by ferric ions (stoichiometry, apparent Kd); type: binding; conditions: for Stoichiometry of ferric ion binding: 10 mM sodium acetate pH 4.0, 100 mM NaCl, 0.005% Tween 20; for Stoichiometry of ferric ion binding / Stoichiometry of ferric ion binding (amidated gastrin17 and related peptides): mean ± S.E.; for Binding of ferric ions: pH 4.0, fluorescence quenching; for Stoichiometry of ferric ion binding (amidated gastrin17 and related peptides): pH 4.0
Protocol: The tryptophan fluorescence of peptide solutions was measured in 3 mL quartz cuvettes thermostated at […], with a Spex Fluorolog-2 spectrofluorimeter (Spex Industries, Edison, N.J.), with the excitation and emission wavelengths set at 290 and 345 nm, respectively. The quenching of tryptophan fluorescence induced by the binding of metal ions was used to calculate the fraction of binding sites occupied, fa: fa=(yf−y)/(yf−yb) where y is the fluorescence signal at a given concentration of metal ions and yb and yf are the signals when the binding sites are fully occupied and unoccupied, respectively (Winzor et al, 1995). The stoichiometry, p, and apparent dissociation constant, Kd, were then obtained, using the program Sigmastat (Jandel Scientific, San Rafael, Calif.), from the intercept and slope of a linear regression of the data transformed as described by Winzor and Sawyer (1995) in terms of the equation Cs/fa=pCa+Kd/(1−fa) where Cs is the total concentration of metal ions, and Ca is the total concentration of glycine-extended gastrin17. For the bismuth binding studies, the data was fitted by non-linear regression with the program Sigmaplot (Jandel Scientific, San Rafael, Calif.) to the equations for models with one binding site or two binding sites with identical affinities: fa=x/(Kd1+x) or to the model with two binding sites with different affinities: fa=(Kd1·x+Kd2·x+2x^2)/2(Kd1·Kd2+Kd1·x+Kd2·x+x^2) where x is the concentration of free metal ions, Kd1 is the first site dissociation constant and Kd2 is the second site dissociation constant. For the one-site model the value of x at any given total concentration of metal ions was obtained by exact solution of the appropriate quadratic (Malby et al, 2001). For the two-site models the value of x was obtained by an iterative Newton-Raphson procedure (Linse et al, 1991). Absorption Spectroscopy
The tryptophan fluorescence of progastrin6-80, glycine-extended gastrin17 and related peptides was measured in the presence of increasing concentrations of ferric ions in 10 mM sodium acetate, pH 4.0, 100 mM NaCl, 0.005% Tween 20. […] Values from the indicated number of independent experiments were combined to obtain the mean values (±S.E.) presented above. No binding of ferric ions to Ggly1-4 or Ggly12-18 was observed.
The tryptophan fluorescence of amidated gastrin17 and related peptides was measured in the presence of increasing concentrations of ferric ions at pH 4.0 (8). Values of the stoichiometry and the apparent dissociation constant (Kd) were obtained from linear transformations of the data presented in FIG. 20A by least squares fitting. Values from the indicated number of independent experiments were combined to obtain the mean values (±S.E.) presented above.

peptide made by a vendor = conditions: whole synthesis, HPLC
[2] = 1H NMR titration of Ggly fragments with ferric citrate; type: binding; conditions: 2 mole of added Fe3+/mole peptide, pH 5.3
Protocol: The peptides LE5AYG, LE5A, E5AY and E5A (approximately 2 mM) were dissolved in H2O with 5 or 10% ^2H2O. […] Sequence-specific ^1H NMR resonance assignments were made from two-dimensional nuclear Overhauser enhancement spectroscopy (NOESY) and total correlation spectroscopy (TOCSY).
The apparent dissociation constants, Kd, for the complexes between ferric ions and the nonapeptide LE5AYG or the octapeptide LE5AY were obtained from the change in chemical shift of the Glu10 amide proton on addition of ferric citrate using the program Sigmaplot (Jandel Scientific, San Rafael, Calif.), by linear regression of the data to the equation 1/δ=Kd/Δ·1/[Fe^3+]+1/Δ where δ is the change in chemical shift, Δ is the maximum change in chemical shift, and [Fe^3+] is the concentration of added ferric ions. Measurement of Inositol Phosphate Production
In order to define the ligands involved in ferric ion binding, we next investigated the effect of ferric ions on the NMR spectra of the peptides. Ferric ion titration experiments were carried out by addition of 20, 50, or 200 mM ferric citrate solution to the peptides. The pH was maintained at 5.3 by addition of small amounts of NaO^2H or ^2HCl. Concentration, pH, temperature and use of ferrric citrate were in keeping with the conditions that were employed in earlier examples in order to prevent precipitation of peptide or ferric hydroxide. […] However, the apparent dissociation constants, Kd, for the complexes between ferric ions and the nonapeptide LE5AYG or the octapeptide LE5AY were obtained from the change in chemical shift of the GlulO amide proton on addition of ferric ions, as described above.

[3] = Ferric ion binding to tyrosine-containing Ggly fragments by absorption spectroscopy; conditions: for Fold Increase in absorbance on addition of ferric ions (maximum): 275 nm; for Fold Increase in absorbance on addition of ferric ions (maximum) / Stiochiom. of ferric ion binding: pH 4.0; for Stiochiom. of ferric ion binding: absorption maximum of 275 nm, 100 μM peptide; for Stoichiometry of binding: titration at 247 nm or 275 nm

Which “Stoichiometry of ferric ion binding” value [1] does the source give for “GglyE6A: Ggly mutant, Glu6 replaced by Ala, SEQ ID NO:10” here?
The value was 2.20 ± 0.06.

With “Ggly12-18: C-terminal heptapeptide of Ggly, SEQ ID NO:8 (YGWMDFG; listed as Homo sapiens)” as the compound, how does the “Binding of ferric ions” value [1] read?
The value was “No binding”.

For CSCC[C@H](NC(=O)[C@H](Cc1c[nH]c2ccccc12)NC(=O)CNC(=O)[C@H](Cc1ccc(O)cc1)NC(=O)[C@H](C)NC(=O)[C@H](CCC(=O)O)NC(=O)[C@H](CCC(=O)O)NC(=O)[C@H](CCC(=O)O)NC(=O)[C@H](C)NC(=O)[C@H](CCC(=O)O)NC(=O)[C@H](CC(C)C)NC(=O)[C@H](Cc1c[nH]c2ccccc12)NC(=O)[C@@H]1CCCN1C(=O)CNC(=O)[C@@H]1CCC(=O)N1)C(=O)N[C@@H](CC(=O)O)C(=O)N[C@@H](Cc1ccccc1)C(N)=O [GamideE7A] ([pGlu]GPWLEAEEEAYGWMDF-NH2), which “Stoichiometry of ferric ion binding (amidated gastrin17 and related peptides)” value [1] is on record?
The value was 0.87 ± 0.04.

For PEPTIDE1{L.E.E.E.E.E.A.Y}$$$$V2.0, which “purity (crude or final not stated)” value (peptide made by a vendor) is on record?
Its value is 98%.

With EEEEE [Peptide E5] as the compound, how does the “Maximum change in chemical shift of Glu9/Glu10 NH resonances on addition of ferric citrate” value [2] read?
The value was “did not shift the glutamate resonances”.

For CSCC[C@H](NC(=O)[C@H](Cc1c[nH]c2ccccc12)NC(=O)CNC(=O)[C@H](Cc1ccc(O)cc1)NC(=O)[C@H](C)NC(=O)[C@H](CCC(=O)O)NC(=O)[C@H](C)NC(=O)[C@H](C)NC(=O)[C@H](CCC(=O)O)NC(=O)[C@H](CCC(=O)O)NC(=O)[C@H](CC(C)C)NC(=O)[C@H](Cc1c[nH]c2ccccc12)NC(=O)[C@@H]1CCCN1C(=O)CNC(=O)[C@@H]1CCC(=O)N1)C(=O)N[C@@H](CC(=O)O)C(=O)N[C@@H](Cc1ccccc1)C(N)=O [GamideE8, 9A] ([pGlu]GPWLEEAAEAYGWMDF-NH2), which “Stoichiometry of ferric ion binding (amidated gastrin17 and related peptides)” value [1] is on record?
Its value is 1.12 ± 0.11.

Which results are given for LEEEEEAYG [LE5AYG]?
Maximum change in chemical shift of Glu9/Glu10 NH resonances on addition of ferric citrate [2]: 0.06 ppm; Fold Increase in absorbance on addition of ferric ions (maximum) [3]: 2.0; Stiochiom. of ferric ion binding [3]: 1.93; Stoichiometry of binding [3]: approximately 2 moles ferric ion per mole of peptide

With “GglyE7A: Ggly mutant, Glu7 replaced by Ala, SEQ ID NO:11” as the compound, how does the “Stoichiometry of ferric ion binding” value [1] read?
The value was 1.33 ± 0.16.

Which “Stoichiometry of ferric ion binding” value [1] does the source give for CSCC[C@H](NC(=O)[C@H](Cc1c[nH]c2ccccc12)NC(=O)CNC(=O)[C@H](Cc1ccc(O)cc1)NC(=O)[C@H](C)NC(=O)[C@H](C)NC(=O)[C@H](C)NC(=O)[C@H](C)NC(=O)[C@H](CCC(=O)O)NC(=O)[C@H](CCC(=O)O)NC(=O)[C@H](CC(C)C)NC(=O)[C@H](Cc1c[nH]c2ccccc12)NC(=O)[C@@H]1CCCN1C(=O)CNC(=O)[C@@H]1CCC(=O)N1)C(=O)N[C@@H](CC(=O)O)C(=O)N[C@@H](Cc1ccccc1)C(=O)NCC(=O)O [GglyE8-10A] ([pGlu]GPWLEEAAAAYGWMDFG-OH) here?
Its value is 1.23 ± 0.08.

With LEEEEEA [LE5A] as the compound, how does the “Maximum change in chemical shift of Glu9/Glu10 NH resonances on addition of ferric citrate” value [2] read?
The value was 0.01 ppm.

For “Ggly1-4: fragment of Ggly, residues 1-4, SEQ ID NO:6”, which “Binding of ferric ions” value [1] is on record?
The value was “No binding”.

With CSCC[C@H](NC(=O)[C@H](Cc1c[nH]c2ccccc12)NC(=O)CNC(=O)[C@H](Cc1ccc(O)cc1)NC(=O)[C@H](C)NC(=O)[C@H](C)NC(=O)[C@H](C)NC(=O)[C@H](C)NC(=O)[C@H](C)NC(=O)[C@H](C)NC(=O)[C@H](CC(C)C)NC(=O)[C@H](Cc1c[nH]c2ccccc12)NC(=O)[C@@H]1CCCN1C(=O)CNC(=O)[C@@H]1CCC(=O)N1)C(=O)N[C@@H](CC(=O)O)C(=O)N[C@@H](Cc1ccccc1)C(=O)NCC(=O)O [GglyE6-10A] ([pGlu]GPWLAAAAAAYGWMDFG-OH) as the compound, how does the “Stoichiometry of ferric ion binding” value [1] read?
The value was 0.88 ± 0.07.

Which “Stoichiometry of ferric ion binding” value [1] does the source give for “Ggly: glycine-extended gastrin17, 18 amino acid non-amidated gastrin, SEQ ID NO:4, residues 55-72 of progastrin” here?
Its value is 2.09 ± 0.07.

Which “Maximum change in chemical shift of Glu9/Glu10 NH resonances on addition of ferric citrate” value [2] does the source give for EEEEEAY [Peptide E5AY] here?
Its value is 0.01 ppm.

What about the “Fold Increase in absorbance on addition of ferric ions (maximum)” value [3] of the same compound?
The value was 3.5.

What about the “Stiochiom. of ferric ion binding” value [3] of the same compound?
The value was 2.58.

What about the Stoichiometry of binding [3] of the same compound?
Its Stoichiometry of binding is “approximately 2 moles ferric ion per mole of peptide”.

For CSCC[C@H](NC(=O)[C@H](Cc1c[nH]c2ccccc12)NC(=O)CNC(=O)[C@H](Cc1ccc(O)cc1)NC(=O)[C@H](C)NC(=O)[C@H](CCC(=O)O)NC(=O)[C@H](CCC(=O)O)NC(=O)[C@H](CCC(=O)O)NC(=O)[C@H](CCC(=O)O)NC(=O)[C@H](CCC(=O)O)NC(=O)[C@H](CC(C)C)NC(=O)[C@H](Cc1c[nH]c2ccccc12)NC(=O)[C@@H]1CCCN1C(=O)CNC(=O)[C@@H]1CCC(=O)N1)C(=O)N[C@@H](CC(=O)O)C(=O)N[C@@H](Cc1ccccc1)C(N)=O [Gamide, reference compound], which “Stoichiometry of ferric ion binding (amidated gastrin17 and related peptides)” value [1] is on record?
Its value is 1.56 ± 0.09.
